B1: CDKD;2 (enzyme, UniProt Q9C9M7 1-348)
chain: MSKSGDNQPVDRYLRRQILGEGTYGVVYKATDTKTGKTVAVKKIRLGNQKEGVNFTALREIKLLKELNHPHIVELIDAFPHDGSLHLVFEYMQTDLEAVIRDRNIFLSPGDIKSYMLMTLKGLAYCHKKWVLHRDMKPNNLLIGENGLLKLADFGLARLFGSPNRRFTHQVFATWYRAPELLFGSRQYGAGVDVWAAGCIFAELLLRRPFLPGSTEIDQLGKIFQAFGTPVPSQWSDMIYLPDYMEFSYTPAPPLRTIFPMASDDALDLLAKMFIYDPRQRITIQQALDHRYFSSSPSPTEPGKLQIPASKGDALEPKASEQNQHGNSPAVLSPPGKMRRVMGPEGFT
B2: COATOMER SUBUNIT BETA-3 (protein, UniProt Q8L828 1-909)
chain: MPLRLDIKRKFAQRSERVKSVDLHPTEPWILASLYSGTVCIWNYQTQTITKSFEVTELPVRSAKFIPRKQWVVAGADDMYIRVYNYNTMDKVKVFEAHSDYIRCVAVHPTLPYVLSSSDDMLIKLWDWENGWACTQIFEGHSHYVMQVVFNPKDTNTFASASLDRTIKIWNLGSPDPNFTLDAHQKGVNCVDYFTGGDKPYLITGSDDHTAKVWDYQTKSCVQTLDGHTHNVSAVCFHPELPIIITGSEDGTVRIWHATTYRLENTLNYGLERVWAIGYIKSSRRVVIGYDEGTIMVKLGREIPVASMDSSGKIIWAKHNEIQTANIKSIGAGYEATDGERLPLSVKELGTCDLYPQSLKHNPNGRFVVVCGDGEYIIYTALAWRNRSFGSGLEFVWSSEGECAVRESSSKIKIFSKNFQERKSIRPTFSAEKIFGGTLLAMCSNDFICFYDWAECRLIQQIDVTVKNLYWAESGDLVAIASDTSFYILKYNRELVSSHFDSGRPTDEEGVEDAFEVLHENDERVRTGIWVGDCFIYNNSSWKLNYCVGGEVTTMYHLDRPMYLLGYIANQSRVYLVDKEFNVIGYTLLLSLIEYKTLVMRGDLDRANQILPTIPKEQHNNVAHFLESRGMIEDALEIATDPDYKFDLAIQLGRLEIAKEIAEEVQSESKWKQLGELAMSSGKLQLAEDCMKYAMDLSGLLLLYSSLGDAEGVSKLACLAKEQGKNNVAFLCLFTLGRLEDCLQLLVESNRIPEAALMARSYLPSKVSEIVALWREDLSKVNPKAAESLADPEEYSNLFEDWQVALSVEANTAETRGVYTAAENYPSHADKPSITLVEAFRNLQVEAEESLENGNIDHEVAEENGHVENEGDEEEQQEEEVNEEEGVVDADSTDGAVLVNGSEVLTPHP
B3: cyclin H (protein, UniProt Q8W5S1 1-336)
chain: MADFQTSTQRAKWIFTPQKLAERYKAANQRAVQMLEKCGTTQVEVDASGSLTYPKDKVGSGDQADKKLKPLSADEERFMRAFYEAKVQEVCSAFAFPHKIQATALQYFKRFYLQWSVMQHHPKEIMLTCVYAACKIEENHVSAEEIGKGINQDHRIILKYEMAVLQSLEFDLIVYAPYRAIEGFVNNMEEFLQARDDEIQKLESLLKGATAEADKVMLTDAPLLFPPGQLALASLRIANGVLGVIDFDRYLENIVSQPNSEHTTSELTKLLDNIEYLVKNYKCPSEKDMKHINRKLKSCLGHSSSHDESKKREKRSKHKSHRSSNDTPNGAPPPIG

The chains behind the UniProt entries cited, without tags or fusion partners.
UniProt P29514: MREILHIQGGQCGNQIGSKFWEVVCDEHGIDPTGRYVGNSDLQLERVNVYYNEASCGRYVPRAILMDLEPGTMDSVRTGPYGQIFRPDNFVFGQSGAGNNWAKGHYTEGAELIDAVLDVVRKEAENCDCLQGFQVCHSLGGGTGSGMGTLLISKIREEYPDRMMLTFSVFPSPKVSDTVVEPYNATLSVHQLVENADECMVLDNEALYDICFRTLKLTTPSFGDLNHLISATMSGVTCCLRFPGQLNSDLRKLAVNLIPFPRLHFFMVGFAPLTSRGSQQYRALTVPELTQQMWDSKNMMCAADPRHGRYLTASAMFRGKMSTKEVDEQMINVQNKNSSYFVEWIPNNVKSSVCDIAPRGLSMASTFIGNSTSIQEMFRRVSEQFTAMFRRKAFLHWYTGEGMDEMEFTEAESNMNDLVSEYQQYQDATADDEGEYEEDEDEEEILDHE
UniProt Q9T091: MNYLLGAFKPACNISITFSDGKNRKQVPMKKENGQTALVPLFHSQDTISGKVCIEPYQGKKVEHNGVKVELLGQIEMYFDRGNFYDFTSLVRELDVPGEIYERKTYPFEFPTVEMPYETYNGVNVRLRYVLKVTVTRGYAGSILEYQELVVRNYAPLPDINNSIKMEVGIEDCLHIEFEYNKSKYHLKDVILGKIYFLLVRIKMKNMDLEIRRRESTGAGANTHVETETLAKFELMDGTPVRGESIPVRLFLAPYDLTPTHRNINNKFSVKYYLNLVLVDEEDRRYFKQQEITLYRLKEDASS

No constants are given. Whether binding was seen depends on the method and setting. In cells and extracts the contact can be indirect. These calls come from enrichment with a bait or labelling near it, and not all partners need be listed. Where a sequence is shown, tags or fusion partners need not be part of it.

This assay concerns the target T1, CDKD;3:YFP (Arabidopsis thaliana) (UniProt Q9LMT0).
T1 sequence: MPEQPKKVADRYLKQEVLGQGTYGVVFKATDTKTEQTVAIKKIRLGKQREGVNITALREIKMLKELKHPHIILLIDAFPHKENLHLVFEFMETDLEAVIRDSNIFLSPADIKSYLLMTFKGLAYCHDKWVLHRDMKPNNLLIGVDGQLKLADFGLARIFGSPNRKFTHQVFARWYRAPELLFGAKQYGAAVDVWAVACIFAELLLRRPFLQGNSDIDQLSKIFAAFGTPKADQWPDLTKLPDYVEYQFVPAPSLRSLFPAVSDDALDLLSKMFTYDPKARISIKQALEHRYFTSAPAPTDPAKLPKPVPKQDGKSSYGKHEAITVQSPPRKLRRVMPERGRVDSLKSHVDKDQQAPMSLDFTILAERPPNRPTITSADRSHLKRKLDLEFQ
The experiment in a line: affinity purification with mass spectrometry.
Take “TUBULIN BETA-6 (from UniProt P29514 1-449)”: the binding entry is on record as “binds”.
For “VACUOLAR PROTEIN SORTING-ASSOCIATED PROTEIN 26B (from UniProt Q9T091 1-303)”, the binding entry is on record as “binds”.
In the case of B1 it was “binds”.
Then B2, with “binds”; and B3, with “binds”.

The values above are taken from article doi:10.1101/2022.08.08.503215.
